Results are given in words; binding and its absence hold for the method and conditions named. Binding seen in cells or lysates may run through a third protein. Some binding calls cover weakened binding; strength is not graded here. Tags and fused reporters may be left off the sequences shown.
Key:
[1] = biological target: NEDD4-GFP fusion protein (human) (UniProt P46934); test: co-immunoprecipitation from 293 cells, anti-GFP IP and anti-V5 blot (FIG. 7, lane 1)
[2] = biological target: GST-WW fusion protein (all four WW-domains of human NEDD4 fused to glutathione S-transferase) (human) (UniProt P46934); test: GST pull-down of in vitro translated [35S]Met-labeled protein (FIG. 6, lane 1)

Chains of the proteins cited; added tags and fusions are not shown. Lines headed by an entry give the natural chain unless they say otherwise; changes in a name come on top. A line that says so, or that is headed by a name, gives the form on record, which may keep a tag or linker. Residues count along the entry.
GST-WW fusion protein (all four WW-domains of human NEDD4 fused to glutathione S-transferase) (P46934, residues 610-925): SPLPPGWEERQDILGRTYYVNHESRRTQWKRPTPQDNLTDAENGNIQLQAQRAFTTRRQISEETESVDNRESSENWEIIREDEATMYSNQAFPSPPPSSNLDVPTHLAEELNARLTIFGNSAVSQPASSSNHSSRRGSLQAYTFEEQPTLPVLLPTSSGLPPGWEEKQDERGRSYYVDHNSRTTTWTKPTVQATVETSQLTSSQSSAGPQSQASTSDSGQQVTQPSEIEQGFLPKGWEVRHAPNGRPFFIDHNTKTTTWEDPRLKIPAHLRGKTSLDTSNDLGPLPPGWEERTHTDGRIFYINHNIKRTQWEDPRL

binding [1]: binds
binding [2]: binds
B1: PMEPA1-V5 fusion protein (protein, not shown: small tags and cut ends)
chain: MAELEFVQIIIIVVVMMVMVVVITCLLSHYKLSARSFISRHSQGRRREDALSSEGCLWPSESTVSGNGIPEPQVYAPPRPTDRLAVPPFAQRERFHRFQPTYPYLQHEIDLPPTISLSDGEEPPPYQGPCTLQLRDPEQQLELNRESVRAPPNRTIFDSDLMDSARLGGPCPPSSNSGISATCYGSGGRMEGPPPTYSEVIGHYPGSSFQHQQSSGPPSLLEGTRLHHTHIAPLESAAIWSKEKDKQKGHPL
modifications: [35S]methionine-labeled in the GST pull-down assay

Reference: patent US20040092469A1
